Experimental data: PMC12670160, “A drug-repurposing screen of FDA- and EMA-approved drugs identifies two NF-κB inhibitors active against eumycetoma” (Journal of Antimicrobial Chemotherapy, 2025)
Where a name gives a salt, the structure may show the parent alone. Out of some 5,300 compounds screened, about 130 (2.5%) showed an effect of 50% or more. The list shows a part of the results.

Test system: M. mycetomatis strain mm55
Settings: primary screen, metabolic activity vs growth control; 96 h, 2 µM; inhibitor

SMILES	% viability
C[C@@H]([C@H](C)O)[C@H](N)C(=O)O [ONC0005485, id1101]	81.96%
Nc1ccc(-c2nc3ccc(-c4nc5ccc(N)cc5[nH]4)cc3[nH]2)cc1 [ONC0001329, ro907501]	105.6%
C[N+](C)(C)CCOP(=O)(O)OP(=O)(O)OC[C@H]1O[C@@H](n2ccc(N)nc2=O)[C@H](O)[C@@H]1O [ONC0005601, citicoline]	130.9%
CC(C)(Sc1cc(C(C)(C)C)c(O)c(C(C)(C)C)c1)Sc1cc(C(C)(C)C)c(O)c(C(C)(C)C)c1 [ONC0000665, probucol]	99.79%
COC(=O)c1sccc1S(=O)(=O)Nc1ccc(Nc2ccccc2)cc1OC [ONC0000053, gsk0660]	99.51%
Cc1ccc(OC[C@@H](O)[C@H](C)NC(C)C)c2c1CCC2 [ONC0001929, ici118551]	52.35%
N[C@@H]1[C@@H](O)[C@H](O)[C@@H](CO)O[C@H]1O [ONC0000404, glucosamine hydrochloride]	56.73%
CCC[C@H](Nc1nc(-c2ccc(NC(=O)NCC)c(OC)c2)ncc1C)c1cccnc1 [ONC0004959, cyt997]	62.33%
COc1cc2ncc(-c3ccccc3)nc2cc1OC [ONC0004511, tyrphostin ag 1296 ag 1296]	102.9%
O=c1cc(N2CCNCC2)oc2c(-c3ccccc3)cccc12 [ONC0003548, ly303511]	112.3%
O=C1C2CCN(CC2)C1(CO)CO [ONC0001542, prima1]	119.7%
CN1CCCN=C1COC(=O)C(O)(c1ccccc1)C1CCCCC1 (centres unmarked) [ONC0002414, oxyphencyclimine hydrochloride]	137.8%
CNC(=O)c1cccc(NC(=O)N2CCC(Oc3ccccc3Cl)CC2)c1 [ONC0000190, a939572]	66.79%
CC[C@H]1OC(=O)[C@@](C)(F)C(=O)[C@H](C)[C@@H](O[C@@H]2O[C@H](C)C[C@H](N(C)C)[C@H]2O)[C@](C)(OC)C[C@@H](C)C(=O)[C@H](C)[C@H]2N(CCCCn3cc(-c4cccc(N)c4)nn3)C(=O)O[C@]12C [ONC0002024, solithromycin]	84.59%
CC(C)(Oc1ccc(Cl)cc1)C(=O)O [ONC0000304, clofibric acid]	84.93%
COc1ccc([C@]2(O)CC[C@@H](N3CC[C@@H](NC(=O)CNC(=O)c4cccc(C(F)(F)F)c4)C3)CC2)cn1 [ONC0000726, incb 3284]	81.5%
COc1ccc(CCNCC(O)COc2cccc(C)c2)cc1OC (centres unmarked) [ONC0003395, bevantolol hcl]	57.46%
COc1cc(Nc2ncc(F)c(Nc3ccc4c(n3)NC(=O)C(C)(C)O4)n2)cc(OC)c1OC [ONC0005012, r406free base]	67.53%
CCC(C(=O)O)c1ccc(CC(C)C)cc1 (centres unmarked) [ONC0004724, butibufen]	92.99%
CN(C)CC/C=C1\c2ccccc2CSc2ccccc21 [ONC0002296, dosulepin]	69.48%
O=C(Nc1cccc(C(F)(F)F)c1)Nc1ccc(Br)cc1-c1nnn[nH]1 [ONC0000034, ns3623]	93.37%

SMILES	% viability
CC(=O)N[C@@H](CCC(N)=O)C(=O)O [ONC0003225, aceglutamide]	111.2%
COc1ccc(C(=O)Nc2sc3c(c2C(N)=O)CCCC3)cc1OC [ONC0003764, tcs359]	108%
O=S(=O)(NCC1CC1)c1ccc(Nc2nccc(N3CCCc4cc(O)ccc43)n2)cc1 [ONC0000300, pyrintegrin]	82.61%
Cc1cc(C(=O)NNCc2ccccc2)no1 [ONC0005549, isocarboxazid]	93.11%
CC(=O)NC[C@H]1CN(c2ccc(N3CCSCC3)c(F)c2)C(=O)O1 [ONC0005507, sutezolid]	87.63%
COc1ccc(-c2ccc(=N)n(CCCC(=O)O)n2)cc1 [ONC0001493, gabazine]	75.99%
O=C(O)CCCN1C(=O)c2cccc3cccc(c23)C1=O [ONC0002626, isodibut]	70.64%
CC(C)(S)[C@@H](N)C(=O)O [ONC0002780, penicillamine cuprimine]	95.42%
O=C(O)C1CSCN1 (centres unmarked) [ONC0002894, timonacic]	133.4%
[H]/N=C(\N/C(=N/[H])NCCCCCCNC(=N)NC(=N)Nc1ccc(Cl)cc1)Nc1ccc(Cl)cc1 [ONC0000326, chlorhexidine dihydrochloride]	77.24%
Cc1cccc(/C=N/Nc2cc(N3CCOCC3)nc(OCCc3ccccn3)n2)c1 [ONC0001860, apilimod]	90.03%
CSc1ccc(C(=O)c2[nH]c(=O)[nH]c2C)cc1 [ONC0002172, enoximone]	80.93%
COc1cc2c(c(OC)c1OC)-c1c(cc3c(c1OC)OCO3)C[C@H](C)[C@@](C)(O)C2 [ONC0001126, schisandrol b]	73.98%
NC(C(=O)O)c1ccc(C(=O)O)c(O)c1 (centres unmarked) [ONC0002596, 4carboxy3hydroxyphenylglyciners]	58.45%
Cn1c(/C=C/C(=O)NO)ccc1/C=C/C(=O)c1cccc(F)c1 [ONC0001259, mc1568]	75.09%
CCCCCCCCCCCCCCOC(=O)c1cccnc1 [ONC0003671, tetradecyl nicotinate]	79.3%
O=C(CC(c1ccccc1)c1ccccc1)N1CCN(C(c2ccccc2)c2ccccc2)CC1 [ONC0000910, np118809]	59.72%
Cn1c(=O)c2c(ncn2CC(=O)O)n(C)c1=O [ONC0002325, acefylline]	70.25%
CCOC(=O)Nc1cc2c(c(N)n1)NC(c1ccccc1)=C(C)N2 [ONC0002128, mivobulin]	3.846%
CCCCCCCCCCC[C@@H](C[C@@H]1OC(=O)[C@H]1CCCCCC)OC(=O)[C@H](CC(C)C)NC=O [ONC0003882, orlistat]	71.01%
NC(=O)c1cc[n+](CC2=C(C(=O)O)N3C(=O)[C@@H](NC(=O)Cc4cccs4)[C@H]3SC2)cc1 [ONC0005624, cefalonium]	95.75%

SMILES	% viability
COc1cc(OCc2cccc(-c3ccccc3)c2C)cc(OC)c1CN1CCCC[C@H]1C(=O)O [ONC0004249, bms1]	55.43%
CC(C)(C)n1nc(-c2ccc(Cl)cc2)c2c(N)ncnc21 [ONC0001827, pp2]	83.22%
CS(=O)(=O)c1cccc(CNc2nc(Nc3ccc4c(c3)CCC(=O)N4)ncc2C(F)(F)F)c1 [ONC0002648, pf573228]	80.9%
CC(C)=CCC/C(C)=C/CC/C(C)=C/CC/C(C)=C/CC1=C(C)C(=O)c2ccccc2C1=O [ONC0005539, menatetrenone]	92.52%
C[C@H](C[C@H](N)C(=O)O)C(=O)O [ONC0001938, sym 2081]	90.01%
C[N+](C)(CCOc1ccccc1)Cc1ccccc1 [ONC0004004, bephenium hydroxynapthoate]	58.57%
Cn1nnnc1SCC1=C(C(=O)O)N2C(=O)[C@@H](NC(=O)[C@H](OC=O)c3ccccc3)[C@H]2SC1 [ONC0000559, cefamandole nafate]	111.5%
CCCC[C@@H](NC(=O)[C@@H](Cc1cn(C(=O)OC)c2ccccc12)NC(=O)[C@H](CC(C)(C)C)NC(=O)N1[C@H](C)CCC[C@@H]1C)C(=O)O [ONC0002254, bq788 sodium salt]	82.31%
CNC(=O)Oc1ccccc1OC(C)C [ONC0003282, propoxur]	56.04%
CNC(=O)[C@H](Cc1ccccc1)NC(=O)[C@H](CC(C)C)[C@H](CSc1cccs1)C(=O)NO [ONC0005180, batimastat bb94]	86.23%
Cc1nc2ccc(CN(C)c3ccc(C(=O)N[C@@H](CCC(=O)O)C(=O)O)s3)cc2c(=O)[nH]1 [ONC0004884, raltitrexed tomudex]	134.6%
CCOC(=O)[C@H](CCc1ccccc1)N[C@@H](C)C(=O)N1CCC[C@H]1C(=O)O [ONC0000561, enalapril maleate]	109.8%
Cc1cccc(-c2n[nH]cc2-c2ccc3ncccc3n2)n1 [ONC0005169, repsox]	79.46%
Cc1cc(Cn2cnc3c2C[C@@H](C(=O)O)N(C(=O)C(c2ccccc2)c2ccccc2)C3)ccc1N(C)C [ONC0001738, pd123319]	114.8%
O=C1CC2(CCCC2)CC(=O)N1CCNCC1COc2ccccc2O1 (centres unmarked) [ONC0001596, mdl73005ef]	68.7%
CSc1ccc(C(=O)/C=C/c2cc(C)c(OC(C)(C)C(=O)O)c(C)c2)cc1 [ONC0001336, elafibranor]	75.62%
C[C@@H]1CN(CC(=O)Nc2ccc3c(c2)Cc2cccc(-c4cc(=O)cc(N5CCOCC5)o4)c2S3)C[C@H](C)O1 [ONC0004617, ku60019]	84.3%
CC[N+](CC)(CC)CCC(O)(c1ccccc1)C1CCCCC1 (centres unmarked) [ONC0002920, tridihexethyl]	61.4%
N=C(N)c1ccc(-c2ccc(-c3ccc(C(=N)N)cc3)o2)cc1 [ONC0003070, furamidine]	108.4%
CCCCC(=O)O[C@]1(C(=O)CO)CC[C@H]2[C@@H]3CCC4=CC(=O)CC[C@]4(C)[C@H]3[C@@H](O)C[C@@]21C [ONC0004200, hydrocortisone valerate]	91.76%

4 entries drawn at random from those above, as already listed:
SMILES	% viability
C[C@H](C[C@H](N)C(=O)O)C(=O)O [ONC0001938, sym 2081]	90.01%
Cc1cccc(-c2n[nH]cc2-c2ccc3ncccc3n2)n1 [ONC0005169, repsox]	79.46%
CNC(=O)[C@H](Cc1ccccc1)NC(=O)[C@H](CC(C)C)[C@H](CSc1cccs1)C(=O)NO [ONC0005180, batimastat bb94]	86.23%
CC[N+](CC)(CC)CCC(O)(c1ccccc1)C1CCCCC1 (centres unmarked) [ONC0002920, tridihexethyl]	61.4%
